The target of this experiment is Deinococcus radiodurans DnaB (Deinococcus radiodurans R1). The experiment is described as follows: native gel or EMSA; native agarose gel electrophoresis; PriA and DnaB mixed and incubated on ice for 10 min; 0.6% agarose in 25 mM Tris-HCl pH 8.5, 19.2 mM glycine; 50 V for about 4 h at 4°C; Coomassie staining; both purified. (In general: A gel shift assay detects complexes by their altered migration in electrophoresis.)

These are yes or no findings as the source states them, for the method shown. A result given as binding can be weak or reduced; the word gives no strength.

B1: Deinococcus radiodurans PriA (protein, UniProt P0DXX8 1-925)
chain: MTLWTVSPPAVSSEAEEKPVQDTVSLTAADQTWQVCVPLPIAALDFAAPHGYVGEVPLGCRVAVPWRGGEIRVGLVVGAGSSMGRHRLREALALLDSPEAPWVAPGTARGLTAWAEEAHLPPGLVWDDLLCTGWEPAHRHEVRAVPGADLSPYGETLPDTDWSRADLYPPALLDAAREQGLLDDRFLPDPPQVNRVVARDLNDVPPAARTQVVVTAQPWEAADPALCTPPHWEAVTGEGALTAKQQQAHDWLRAHGPQPSLGAWASGAKVGLPVVRKVADLGWAQEHPQAVPPPPAWKWLREHGPVASPAAWASAAGVRPAEVRRLMEGGAADYTFTPVTPPAAWAWLREHGPAETVSAWATGAGVSPSVAAGLLARGWAAQVQMPAPPPELPAAPLWAGPPLDELTALAADALPEEDRWRLHGGRPASRFAALAPRVARLLAQGRSVLILAPDHATLRRAWAGLGGLAALAGTRAALLSGQLSPRQREEIWRQVRAGDVRLVIGSALALSAPLPDLALLVVLEEGSDAYKLLSGSRAFVPDVAARVARSLRAALGLVGSVPAVESVPLPGLVLAPPRARVHVVDYAQPPAQPELGPLSSVHLTPGDLGYPISHDLARLLRQVQERGRQAALLAPRRGYSALLRCPRCDHVPGCPNCDVPLRFHQDRRQMECHQCGHHQSVPDRCDECGEQMWKARGPGTEWIAAEVEKLLPGFPVYRLDKDHQDDLAPLHAGEAGVVVGTQLLLAQPSPPNLALIGVTLADTWLGVSDFRASERYHRLLRQLAEWHPSRAPLLVVQTFQGDHPALKVLETGRDALAYPAAEERVRAELFYPPHARLAQIEVAARDRDRAKVAAQALADALHGAGAVATEVLGPAHAAVARVRGAYLYQLLLRARNDARLAELLGVLDTRSWGARVRVDVNPRST
For the molecule B1, the binding result was “binds”.

The values are drawn from paper PMC4504706, “Deinococcus radiodurans PriA is a Pseudohelicase”.
